Data on five molecules can be found in publication doi:10.1101/2023.03.27.533164.

Chains of the proteins cited; added tags and fusions are not shown.
UniProt Q99873: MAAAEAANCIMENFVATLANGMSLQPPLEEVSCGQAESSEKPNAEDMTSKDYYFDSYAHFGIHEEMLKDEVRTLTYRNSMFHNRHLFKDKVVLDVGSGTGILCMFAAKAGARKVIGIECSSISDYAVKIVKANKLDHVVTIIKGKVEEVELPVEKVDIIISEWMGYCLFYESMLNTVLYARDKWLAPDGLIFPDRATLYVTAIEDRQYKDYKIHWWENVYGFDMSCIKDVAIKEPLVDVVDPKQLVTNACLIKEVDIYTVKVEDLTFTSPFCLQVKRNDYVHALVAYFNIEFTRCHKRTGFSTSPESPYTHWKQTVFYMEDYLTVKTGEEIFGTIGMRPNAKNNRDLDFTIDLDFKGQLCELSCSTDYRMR
UniProt O60264: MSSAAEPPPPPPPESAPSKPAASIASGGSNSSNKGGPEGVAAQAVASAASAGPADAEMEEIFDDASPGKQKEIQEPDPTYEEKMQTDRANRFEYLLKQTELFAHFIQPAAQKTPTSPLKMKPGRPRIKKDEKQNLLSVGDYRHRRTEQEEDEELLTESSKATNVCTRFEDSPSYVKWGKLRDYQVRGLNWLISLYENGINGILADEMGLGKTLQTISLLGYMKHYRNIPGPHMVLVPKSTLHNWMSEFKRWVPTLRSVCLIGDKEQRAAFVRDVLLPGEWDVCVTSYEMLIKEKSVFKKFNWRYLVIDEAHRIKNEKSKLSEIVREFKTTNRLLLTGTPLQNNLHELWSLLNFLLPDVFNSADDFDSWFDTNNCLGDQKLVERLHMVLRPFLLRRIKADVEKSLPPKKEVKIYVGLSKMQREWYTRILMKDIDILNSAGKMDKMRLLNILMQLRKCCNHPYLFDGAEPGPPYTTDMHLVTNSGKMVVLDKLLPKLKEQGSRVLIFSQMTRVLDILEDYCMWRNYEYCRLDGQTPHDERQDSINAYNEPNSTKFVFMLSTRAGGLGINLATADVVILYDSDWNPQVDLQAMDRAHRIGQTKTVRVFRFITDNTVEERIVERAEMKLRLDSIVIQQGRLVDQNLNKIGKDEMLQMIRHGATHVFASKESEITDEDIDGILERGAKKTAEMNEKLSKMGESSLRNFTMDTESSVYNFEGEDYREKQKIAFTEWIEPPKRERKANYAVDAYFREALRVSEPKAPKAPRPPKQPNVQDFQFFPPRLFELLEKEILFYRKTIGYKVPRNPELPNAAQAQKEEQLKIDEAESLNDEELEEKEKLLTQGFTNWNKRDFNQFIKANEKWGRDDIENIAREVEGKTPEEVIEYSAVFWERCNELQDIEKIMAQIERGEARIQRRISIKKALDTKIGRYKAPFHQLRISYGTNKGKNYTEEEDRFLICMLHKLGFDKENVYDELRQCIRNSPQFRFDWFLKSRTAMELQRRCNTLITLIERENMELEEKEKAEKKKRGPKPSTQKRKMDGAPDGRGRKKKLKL
UniProt P05549: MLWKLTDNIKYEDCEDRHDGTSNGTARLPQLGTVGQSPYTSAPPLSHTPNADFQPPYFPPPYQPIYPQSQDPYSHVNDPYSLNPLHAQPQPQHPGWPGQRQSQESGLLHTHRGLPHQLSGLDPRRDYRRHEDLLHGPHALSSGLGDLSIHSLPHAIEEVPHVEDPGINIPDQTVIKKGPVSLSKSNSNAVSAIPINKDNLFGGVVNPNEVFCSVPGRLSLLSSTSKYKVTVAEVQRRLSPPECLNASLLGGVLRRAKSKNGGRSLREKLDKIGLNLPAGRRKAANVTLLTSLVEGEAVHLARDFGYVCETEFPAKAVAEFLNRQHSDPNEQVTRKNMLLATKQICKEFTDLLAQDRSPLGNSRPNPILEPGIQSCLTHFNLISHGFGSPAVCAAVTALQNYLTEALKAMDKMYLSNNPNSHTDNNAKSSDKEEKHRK

This test deals with T1, Basonuclin 1 (human (endogenous in N/TERT-1)) (UniProt Q01954).
T1 sequence: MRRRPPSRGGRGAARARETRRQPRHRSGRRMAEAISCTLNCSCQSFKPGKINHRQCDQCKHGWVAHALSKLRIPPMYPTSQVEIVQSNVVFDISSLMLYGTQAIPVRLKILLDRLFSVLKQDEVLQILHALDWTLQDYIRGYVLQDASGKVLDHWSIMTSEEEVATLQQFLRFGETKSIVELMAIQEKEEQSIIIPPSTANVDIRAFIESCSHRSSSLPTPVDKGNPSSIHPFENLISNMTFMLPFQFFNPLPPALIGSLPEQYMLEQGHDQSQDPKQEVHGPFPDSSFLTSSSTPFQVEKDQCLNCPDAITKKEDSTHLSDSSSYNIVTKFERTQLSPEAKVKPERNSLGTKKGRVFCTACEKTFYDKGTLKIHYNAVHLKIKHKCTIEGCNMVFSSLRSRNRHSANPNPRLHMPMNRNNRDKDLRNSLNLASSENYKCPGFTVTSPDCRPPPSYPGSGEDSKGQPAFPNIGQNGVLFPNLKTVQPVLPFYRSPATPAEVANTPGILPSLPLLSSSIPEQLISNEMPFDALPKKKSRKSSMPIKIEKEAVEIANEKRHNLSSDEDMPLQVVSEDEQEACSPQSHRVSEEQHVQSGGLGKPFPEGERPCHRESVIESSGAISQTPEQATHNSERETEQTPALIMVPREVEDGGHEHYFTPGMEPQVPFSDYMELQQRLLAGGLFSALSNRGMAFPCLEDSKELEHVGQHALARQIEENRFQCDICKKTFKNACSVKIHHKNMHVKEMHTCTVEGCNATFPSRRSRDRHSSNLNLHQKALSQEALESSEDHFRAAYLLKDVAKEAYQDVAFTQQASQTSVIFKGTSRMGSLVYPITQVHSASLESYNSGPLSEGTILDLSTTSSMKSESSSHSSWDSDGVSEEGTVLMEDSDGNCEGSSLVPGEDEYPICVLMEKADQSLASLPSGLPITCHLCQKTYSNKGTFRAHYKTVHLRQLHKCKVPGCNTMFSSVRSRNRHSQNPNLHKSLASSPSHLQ
The experiment in a line: affinity purification with mass spectrometry.

These are yes or no findings as the source states them, for the method shown. In cells and extracts the contact can be indirect. Here binding means that the protein was enriched with, or labelled near, the bait; the list need not be complete.

On to “PRMT1 (from UniProt Q99873 1-371) (enzyme)”, for which the binding entry is “binds”.
Then SMARCA5 (from UniProt O60264 1-1052), with “binds”; and TFAP2A (from UniProt P05549 1-437), with “binds”.

B1: JUNB (protein, UniProt P17275 1-347)
chain: MCTKMEQPFYHDDSYTATGYGRAPGGLSLHDYKLLKPSLAVNLADPYRSLKAPGARGPGPEGGGGGSYFSGQGSDTGASLKLASSELERLIVPNSNGVITTTPTPPGQYFYPRGGGSGGGAGGAGGGVTEEQEGFADGFVKALDDLHKMNHVTPPNVSLGATGGPPAGPGGVYAGPEPPPVYTNLSSYSPASASSGGAGAAVGTGSSYPTTTISYLPHAPPFAGGHPAQLGLGRGASTFKEEPQTVPEARSRDATPPVSPINMEDQERIKVERKRLRNRLAATKCRKRKLERIARLEDKVKTLKAENAGLSSTAGLLREQVAQLKQKVMTHVSNGCQLLLGVKGHAF
B1: the binding result is “binds”.

B2: TP63 (protein, UniProt Q9H3D4 1-680)
chain: MNFETSRCATLQYCPDPYIQRFVETPAHFSWKESYYRSTMSQSTQTNEFLSPEVFQHIWDFLEQPICSVQPIDLNFVDEPSEDGATNKIEISMDCIRMQDSDLSDPMWPQYTNLGLLNSMDQQIQNGSSSTSPYNTDHAQNSVTAPSPYAQPSSTFDALSPSPAIPSNTDYPGPHSFDVSFQQSSTAKSATWTYSTELKKLYCQIAKTCPIQIKVMTPPPQGAVIRAMPVYKKAEHVTEVVKRCPNHELSREFNEGQIAPPSHLIRVEGNSHAQYVEDPITGRQSVLVPYEPPQVGTEFTTVLYNFMCNSSCVGGMNRRPILIIVTLETRDGQVLGRRCFEARICACPGRDRKADEDSIRKQQVSDSTKNGDGTKRPFRQNTHGIQMTSIKKRRSPDDELLYLPVRGRETYEMLLKIKESLELMQYLPQHTIETYRQQQQQQHQHLLQKQTSIQSPSSYGNSSPPLNKMNSMNKLPSVSQLINPQQRNALTPTTIPDGMGANIPMMGTHMPMAGDMNGLSPTQALPPPLSMPSTSHCTPPPPYPTDCSIVSFLARLGCSSCLDYFTTQGLTTIYQIEHYSMDDLASLKIPEQFRHAIWKGILDHRQLHEFSSPSHLLRTPSSASTVSVGSSETRGERVIDAVRFTLRQTISFPPRDEWNDFNFDMDARRNKQQRIKEEGE
Regarding B2, the binding result is “binds”.
